From article PMC5133968
Like-named read-outs stand apart in the source and are kept apart here. No constants are given. Whether binding was seen depends on the method and setting. In cells and extracts the contact can be indirect. Some binding calls cover weakened binding; strength is not graded here.

Chains of the proteins cited; added tags and fusions are not shown.
UniProt Q16513: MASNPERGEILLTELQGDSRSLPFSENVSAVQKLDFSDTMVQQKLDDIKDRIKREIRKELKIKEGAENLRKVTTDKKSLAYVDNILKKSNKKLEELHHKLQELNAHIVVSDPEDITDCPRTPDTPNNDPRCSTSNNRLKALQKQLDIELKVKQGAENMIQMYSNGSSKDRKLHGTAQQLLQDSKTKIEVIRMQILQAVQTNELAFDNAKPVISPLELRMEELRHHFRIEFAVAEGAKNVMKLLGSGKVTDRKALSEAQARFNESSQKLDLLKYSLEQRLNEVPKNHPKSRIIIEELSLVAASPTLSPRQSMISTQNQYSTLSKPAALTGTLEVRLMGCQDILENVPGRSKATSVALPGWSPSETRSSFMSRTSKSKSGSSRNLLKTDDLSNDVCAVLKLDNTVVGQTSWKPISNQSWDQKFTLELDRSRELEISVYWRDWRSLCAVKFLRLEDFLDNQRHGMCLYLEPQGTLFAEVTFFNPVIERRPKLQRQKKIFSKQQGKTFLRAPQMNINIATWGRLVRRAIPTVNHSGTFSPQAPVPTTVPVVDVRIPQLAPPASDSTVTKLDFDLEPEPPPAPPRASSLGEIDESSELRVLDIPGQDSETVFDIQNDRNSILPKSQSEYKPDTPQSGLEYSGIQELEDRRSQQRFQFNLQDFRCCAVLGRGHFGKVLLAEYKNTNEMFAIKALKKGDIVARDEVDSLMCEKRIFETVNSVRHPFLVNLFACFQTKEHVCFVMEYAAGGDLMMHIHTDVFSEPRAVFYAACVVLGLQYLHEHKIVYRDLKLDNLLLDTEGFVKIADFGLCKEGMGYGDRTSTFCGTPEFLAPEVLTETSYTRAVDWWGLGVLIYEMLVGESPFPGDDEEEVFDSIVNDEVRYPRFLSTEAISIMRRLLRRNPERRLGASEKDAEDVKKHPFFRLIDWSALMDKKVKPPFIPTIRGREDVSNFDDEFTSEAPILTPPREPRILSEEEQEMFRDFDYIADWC
UniProt Q8BWW9: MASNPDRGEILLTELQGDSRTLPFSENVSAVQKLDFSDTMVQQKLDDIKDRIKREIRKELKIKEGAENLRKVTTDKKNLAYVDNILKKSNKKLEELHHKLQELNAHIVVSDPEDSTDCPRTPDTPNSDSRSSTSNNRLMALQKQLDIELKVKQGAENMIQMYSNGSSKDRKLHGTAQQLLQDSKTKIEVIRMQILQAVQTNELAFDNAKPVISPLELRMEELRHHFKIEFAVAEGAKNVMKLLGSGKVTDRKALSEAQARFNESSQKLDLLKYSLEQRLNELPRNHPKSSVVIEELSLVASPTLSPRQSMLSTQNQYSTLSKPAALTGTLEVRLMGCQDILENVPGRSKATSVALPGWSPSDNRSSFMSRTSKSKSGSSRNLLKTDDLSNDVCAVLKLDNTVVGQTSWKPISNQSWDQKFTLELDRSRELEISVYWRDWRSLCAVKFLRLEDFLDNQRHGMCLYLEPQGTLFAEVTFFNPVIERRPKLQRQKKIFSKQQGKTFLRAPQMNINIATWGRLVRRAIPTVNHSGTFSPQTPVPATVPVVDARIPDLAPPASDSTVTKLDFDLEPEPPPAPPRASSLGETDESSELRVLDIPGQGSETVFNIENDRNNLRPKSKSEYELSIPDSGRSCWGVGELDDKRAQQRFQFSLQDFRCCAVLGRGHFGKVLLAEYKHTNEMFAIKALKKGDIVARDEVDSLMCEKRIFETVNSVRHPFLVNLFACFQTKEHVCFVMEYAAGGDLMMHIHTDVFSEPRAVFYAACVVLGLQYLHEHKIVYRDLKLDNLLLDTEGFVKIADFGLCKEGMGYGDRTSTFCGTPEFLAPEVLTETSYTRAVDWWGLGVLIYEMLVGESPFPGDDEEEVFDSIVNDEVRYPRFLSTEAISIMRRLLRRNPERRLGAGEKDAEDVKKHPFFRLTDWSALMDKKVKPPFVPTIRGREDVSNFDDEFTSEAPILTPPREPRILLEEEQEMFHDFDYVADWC

T1: Cdo, endogenous in C2C12 myoblasts (mouse (endogenous in C2C12)) (UniProt Q32MD9)
T1 sequence: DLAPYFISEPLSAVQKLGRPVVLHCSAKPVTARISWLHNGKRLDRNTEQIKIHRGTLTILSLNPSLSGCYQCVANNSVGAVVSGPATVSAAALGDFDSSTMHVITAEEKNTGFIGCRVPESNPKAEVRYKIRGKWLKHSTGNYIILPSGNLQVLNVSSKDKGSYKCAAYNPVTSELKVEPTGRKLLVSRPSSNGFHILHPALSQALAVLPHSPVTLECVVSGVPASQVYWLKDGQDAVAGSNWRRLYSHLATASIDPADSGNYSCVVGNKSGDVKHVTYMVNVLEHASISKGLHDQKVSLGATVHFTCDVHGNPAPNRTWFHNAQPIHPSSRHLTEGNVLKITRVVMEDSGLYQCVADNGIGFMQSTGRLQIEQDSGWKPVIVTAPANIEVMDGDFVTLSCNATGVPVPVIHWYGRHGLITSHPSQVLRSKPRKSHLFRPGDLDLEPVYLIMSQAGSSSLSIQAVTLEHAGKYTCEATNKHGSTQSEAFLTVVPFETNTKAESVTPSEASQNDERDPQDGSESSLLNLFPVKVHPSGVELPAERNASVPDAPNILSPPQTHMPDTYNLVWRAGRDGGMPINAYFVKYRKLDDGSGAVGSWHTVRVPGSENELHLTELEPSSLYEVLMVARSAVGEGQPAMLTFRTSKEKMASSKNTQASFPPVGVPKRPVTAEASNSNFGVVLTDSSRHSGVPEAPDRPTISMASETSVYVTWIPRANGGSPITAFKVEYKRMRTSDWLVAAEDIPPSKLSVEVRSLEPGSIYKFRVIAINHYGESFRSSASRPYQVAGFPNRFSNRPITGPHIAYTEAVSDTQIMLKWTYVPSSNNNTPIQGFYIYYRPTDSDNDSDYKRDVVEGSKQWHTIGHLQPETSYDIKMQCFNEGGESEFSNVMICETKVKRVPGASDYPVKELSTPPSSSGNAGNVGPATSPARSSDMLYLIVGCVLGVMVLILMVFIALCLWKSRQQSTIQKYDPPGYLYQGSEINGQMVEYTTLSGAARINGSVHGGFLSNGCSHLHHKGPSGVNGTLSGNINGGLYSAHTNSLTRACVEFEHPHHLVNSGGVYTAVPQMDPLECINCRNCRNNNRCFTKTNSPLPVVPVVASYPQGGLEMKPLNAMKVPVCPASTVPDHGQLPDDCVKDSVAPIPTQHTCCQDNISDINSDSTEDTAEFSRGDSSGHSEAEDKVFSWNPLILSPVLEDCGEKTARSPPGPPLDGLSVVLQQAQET


What was measured:
[1] = target: T1, Cdo, endogenous in C2C12 myoblasts (mouse (endogenous in C2C12)); assay: co-IP; endogenous proteins; lysates of C2C12 cells in growth medium (D0) or differentiation medium for the indicated times (D1, D2) immunoprecipitated with Cdo antibodies (Figures 2c, 5c)
[2] = target: T1, Cdo, endogenous in C2C12 myoblasts (mouse (endogenous in C2C12)); assay: as above; remark: listed apart in the source
[3] = target: PKN2 (protein kinase C-related kinase 2), expression vector with no tag named (human) (UniProt Q16513); assay: co-IP; 293T cells transiently co-transfected; lysates immunoprecipitated with PKN2 antibodies, blotted for Cdo (Figure 2e) or HA (Figure 5b)
HA-PKN2 (human) = HA-PKN2 (human) (UniProt Q16513); assay: co-IP; 293T cells co-transfected; whole cell extracts incubated with anti-HA and protein G agarose overnight at 4 °C, washed three times; blotted for Cdo (Figure 2b) or PKN2 (Figure 4b)

binding [3] | Molecule | also measured
– | PKN2, endogenous in C2C12 myoblasts (from UniProt Q8BWW9 1-983) (enzyme) | binding [1]: binds
– | APPL1, endogenous in C2C12 myoblasts (protein, UniProt Q8K3H0 1-707) MPGIDKLPIEETLEDSPQTRSLLGVFEEDATAISNYMNQLYQAMHRIYDAQNELSAATHLTSKLLKEYEKQRFPLGGDDEVMSSTLQQFSKVIDELSSCHAVLSTQLADAMMFPISQFKERDLKEILTLKEVFQIASNDHDAAINRYSRLSKKRENDKVKYEVTEDVYTSRKKQHQTMMHYFCALNTLQYKKKIALLEPLLGYMQAQISFFKMGSENLNGQLEEFLANIGTSVQNVRREMDGDVETMQQTIEDLEVASDPLYLPDPDPTKFPINRNLTRKAGYLNARNKTGLVSSTWDRQFYFTQGGNLMSQARGDVAGGLAMDIDNCSVMAVDCEDRRYCFQITSFDGKKSSILQAESKKDHEEWICTINNISKQIYLSENPEETAARVNQSALEAVTPSPSFQQRHESLRPGGQSRPPTARTSSSGSLGSESTNLAALSLDSLVAPDTPIQFDIISPVCEDQPGQAKAFGQGGRRTNPFGESGGSTKSETEDSILHQLFIVRFLGSMEVKSDDHPDVVYETMRQILAARAIHNIFRMTESHLLVTCDCLKLIDPQTQVTRLTFPLPCVVLYATHQENKRLFGFVLRTSGGRSESNLSSVCYIFESNNEGEKICDSVGLAKQIALHAELDRRASEKQKEIERVKEKQQKELSKQKQIEKDLEEQSRLIAASSRPNQAGSEGQLVLSSSQSEESDLGEEGKKRESEA | binding [2]: binds
no binding | CdoΔ1160-1256 (receptor, UniProt O35158) DLATYFISEPLSAVQKLGRPVVLHCSAKPVTARISWLHNGKRLDRNTEQIKIHRGTLTILSLNPSLSGCYQCVANNSVGAVVSGPATVSADALADFDSSTMHVITAEKKNTGFIGCRVPESNPKAEVRYKIRGKWLMYSTGNYIILPSGNLQILNVSSKDKGSYKCAAYNPVTSELKVEPAGRKLLVSRPSSDGFHILHPALSQALAVLPHSPVTLECVVSGVPASQVYWLKDGQDCLSGSNWRRLYSHLATASIDPADSGNYSCVVGNNSSGDVKHVTYTVNVLEHASISKGLHDQKVSLGATVRFTCEVHGNPAPNRTWFHNAQPIRPSSRHLTEGSVLKITGVIMEDSGLYQCMADNGIGFMQSTGRLQIEQDSGQRPVIVTAPANVEVTDGDFVTLSCNATGEPVPVIHWYGRHGLITSHPSQVLRSKSRKSHLFRPGDLDPEPVYLIMSQAGSSSLSIQAVTREHAGKYTCEAVNKHGSTQSEAFLTVVPFETNTKAEPVTPSEASQNDERDPRDGSESGLLNLFPVKVHSGGVELPAEKNASVPDAPNILSPPQTHMPDTYTLVWRTGRDGGMPINAYFVKYRKLDDGSGAVGSWHTVRVPGSESELHLTELEPSSLYEVLMVARSAVGEGQPAMLTFRTSKEKMASSKNTQASFPPVGIPKRPVTSEASNSNFGVVLTDSSRHSGVPEAPDRPTISMASETSVYVTWIPRANGGSPITAFKVEYKRMKSSDWLVAAEDIPPSKLSVEVRSLEPGSIYKFRVIVINHYGESFRSSASRPYQVAGFPNRFSNRPITGPHIAYTEAVSDTQIMLKWTYIPSSNNNTPIQGFYIYYRPTDSDNDSDYKRDVVEGSKQWHTIGHLQPETSYDIKMQCFNEGGESEFSNVMICETKVKRVPGASEYPMKELSTPPSSSGNGGNVGPATSPARSSDMLYLIVGCVLGVMVLILLVFIALCLWKSRQQSAIQKYDPPGYLYQGSEINGQMVEYTTLSGTARINGSVHGGFLSKGSLSNGCSHLHHKGPNGVNGILNGTINGGLYSAHTSSLTRTCVEFEHPHHLVNGGAVYTAVPQMDPLECINCRNCRNNNRCFTKTNSPLPVVPVVASYPQDGLEMKPLGVMKFPVCPVSTVPD | –
no binding | CdoΔ1035-1160 (receptor, UniProt O35158) DLATYFISEPLSAVQKLGRPVVLHCSAKPVTARISWLHNGKRLDRNTEQIKIHRGTLTILSLNPSLSGCYQCVANNSVGAVVSGPATVSADALADFDSSTMHVITAEKKNTGFIGCRVPESNPKAEVRYKIRGKWLMYSTGNYIILPSGNLQILNVSSKDKGSYKCAAYNPVTSELKVEPAGRKLLVSRPSSDGFHILHPALSQALAVLPHSPVTLECVVSGVPASQVYWLKDGQDCLSGSNWRRLYSHLATASIDPADSGNYSCVVGNNSSGDVKHVTYTVNVLEHASISKGLHDQKVSLGATVRFTCEVHGNPAPNRTWFHNAQPIRPSSRHLTEGSVLKITGVIMEDSGLYQCMADNGIGFMQSTGRLQIEQDSGQRPVIVTAPANVEVTDGDFVTLSCNATGEPVPVIHWYGRHGLITSHPSQVLRSKSRKSHLFRPGDLDPEPVYLIMSQAGSSSLSIQAVTREHAGKYTCEAVNKHGSTQSEAFLTVVPFETNTKAEPVTPSEASQNDERDPRDGSESGLLNLFPVKVHSGGVELPAEKNASVPDAPNILSPPQTHMPDTYTLVWRTGRDGGMPINAYFVKYRKLDDGSGAVGSWHTVRVPGSESELHLTELEPSSLYEVLMVARSAVGEGQPAMLTFRTSKEKMASSKNTQASFPPVGIPKRPVTSEASNSNFGVVLTDSSRHSGVPEAPDRPTISMASETSVYVTWIPRANGGSPITAFKVEYKRMKSSDWLVAAEDIPPSKLSVEVRSLEPGSIYKFRVIVINHYGESFRSSASRPYQVAGFPNRFSNRPITGPHIAYTEAVSDTQIMLKWTYIPSSNNNTPIQGFYIYYRPTDSDNDSDYKRDVVEGSKQWHTIGHLQPETSYDIKMQCFNEGGESEFSNVMICETKVKRVPGASEYPMKELSTPPSSSGNGGNVGPATSPARSSDMLYLIVGCVLGVMVLILLVFIALCLWKSRQQSAIQKYDPPGYLYQGSEINGQMVEYTTLSGTARINGSVHGGFLGQIPEECLKDSVAPAPTQRTCRQDNTSDINSDSTEDTAEFNRGDSSGHSEAEDKVFSWSPLILSPVLEDCSEKTAWSPPGPPLDGLSVVLQQAQET | –
binds | Cdo (cell adhesion molecule-related downregulated by oncogene), full length (receptor, UniProt O35158 25-1256) DLATYFISEPLSAVQKLGRPVVLHCSAKPVTARISWLHNGKRLDRNTEQIKIHRGTLTILSLNPSLSGCYQCVANNSVGAVVSGPATVSADALADFDSSTMHVITAEKKNTGFIGCRVPESNPKAEVRYKIRGKWLMYSTGNYIILPSGNLQILNVSSKDKGSYKCAAYNPVTSELKVEPAGRKLLVSRPSSDGFHILHPALSQALAVLPHSPVTLECVVSGVPASQVYWLKDGQDCLSGSNWRRLYSHLATASIDPADSGNYSCVVGNNSSGDVKHVTYTVNVLEHASISKGLHDQKVSLGATVRFTCEVHGNPAPNRTWFHNAQPIRPSSRHLTEGSVLKITGVIMEDSGLYQCMADNGIGFMQSTGRLQIEQDSGQRPVIVTAPANVEVTDGDFVTLSCNATGEPVPVIHWYGRHGLITSHPSQVLRSKSRKSHLFRPGDLDPEPVYLIMSQAGSSSLSIQAVTREHAGKYTCEAVNKHGSTQSEAFLTVVPFETNTKAEPVTPSEASQNDERDPRDGSESGLLNLFPVKVHSGGVELPAEKNASVPDAPNILSPPQTHMPDTYTLVWRTGRDGGMPINAYFVKYRKLDDGSGAVGSWHTVRVPGSESELHLTELEPSSLYEVLMVARSAVGEGQPAMLTFRTSKEKMASSKNTQASFPPVGIPKRPVTSEASNSNFGVVLTDSSRHSGVPEAPDRPTISMASETSVYVTWIPRANGGSPITAFKVEYKRMKSSDWLVAAEDIPPSKLSVEVRSLEPGSIYKFRVIVINHYGESFRSSASRPYQVAGFPNRFSNRPITGPHIAYTEAVSDTQIMLKWTYIPSSNNNTPIQGFYIYYRPTDSDNDSDYKRDVVEGSKQWHTIGHLQPETSYDIKMQCFNEGGESEFSNVMICETKVKRVPGASEYPMKELSTPPSSSGNGGNVGPATSPARSSDMLYLIVGCVLGVMVLILLVFIALCLWKSRQQSAIQKYDPPGYLYQGSEINGQMVEYTTLSGTARINGSVHGGFLSKGSLSNGCSHLHHKGPNGVNGILNGTINGGLYSAHTSSLTRTCVEFEHPHHLVNGGAVYTAVPQMDPLECINCRNCRNNNRCFTKTNSPLPVVPVVASYPQDGLEMKPLGVMKFPVCPVSTVPDGGQIPEECLKDSVAPAPTQRTCRQDNTSDINSDSTEDTAEFNRGDSSGHSEAEDKVFSWSPLILSPVLEDCSEKTAWSPPGPPLDGLSVVLQQAQET | binding (HA-PKN2 (human)): binds
